# Assay results from article doi:10.1101/2023.10.06.561284.
# The chains behind the UniProt entries cited, without tags or fusion partners.
# UniProt Q61188: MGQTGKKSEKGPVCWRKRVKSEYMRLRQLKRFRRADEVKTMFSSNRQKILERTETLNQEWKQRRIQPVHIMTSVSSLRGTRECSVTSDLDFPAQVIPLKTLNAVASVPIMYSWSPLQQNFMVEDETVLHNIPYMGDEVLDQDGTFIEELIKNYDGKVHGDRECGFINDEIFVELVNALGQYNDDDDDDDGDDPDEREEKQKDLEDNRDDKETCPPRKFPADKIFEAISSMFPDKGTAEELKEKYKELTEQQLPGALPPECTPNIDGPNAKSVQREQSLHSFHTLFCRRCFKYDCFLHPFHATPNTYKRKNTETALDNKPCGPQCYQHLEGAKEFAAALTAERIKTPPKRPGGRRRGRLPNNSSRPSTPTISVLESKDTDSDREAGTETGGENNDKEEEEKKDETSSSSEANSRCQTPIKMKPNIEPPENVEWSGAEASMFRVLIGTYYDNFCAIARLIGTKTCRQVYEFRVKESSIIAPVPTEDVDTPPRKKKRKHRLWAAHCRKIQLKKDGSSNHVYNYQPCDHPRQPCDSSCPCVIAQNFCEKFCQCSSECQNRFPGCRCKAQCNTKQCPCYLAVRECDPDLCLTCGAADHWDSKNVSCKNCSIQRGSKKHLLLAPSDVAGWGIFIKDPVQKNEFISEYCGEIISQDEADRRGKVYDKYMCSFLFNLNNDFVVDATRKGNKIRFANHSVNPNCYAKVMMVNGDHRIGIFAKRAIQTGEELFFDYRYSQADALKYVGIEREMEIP
# UniProt Q80U70: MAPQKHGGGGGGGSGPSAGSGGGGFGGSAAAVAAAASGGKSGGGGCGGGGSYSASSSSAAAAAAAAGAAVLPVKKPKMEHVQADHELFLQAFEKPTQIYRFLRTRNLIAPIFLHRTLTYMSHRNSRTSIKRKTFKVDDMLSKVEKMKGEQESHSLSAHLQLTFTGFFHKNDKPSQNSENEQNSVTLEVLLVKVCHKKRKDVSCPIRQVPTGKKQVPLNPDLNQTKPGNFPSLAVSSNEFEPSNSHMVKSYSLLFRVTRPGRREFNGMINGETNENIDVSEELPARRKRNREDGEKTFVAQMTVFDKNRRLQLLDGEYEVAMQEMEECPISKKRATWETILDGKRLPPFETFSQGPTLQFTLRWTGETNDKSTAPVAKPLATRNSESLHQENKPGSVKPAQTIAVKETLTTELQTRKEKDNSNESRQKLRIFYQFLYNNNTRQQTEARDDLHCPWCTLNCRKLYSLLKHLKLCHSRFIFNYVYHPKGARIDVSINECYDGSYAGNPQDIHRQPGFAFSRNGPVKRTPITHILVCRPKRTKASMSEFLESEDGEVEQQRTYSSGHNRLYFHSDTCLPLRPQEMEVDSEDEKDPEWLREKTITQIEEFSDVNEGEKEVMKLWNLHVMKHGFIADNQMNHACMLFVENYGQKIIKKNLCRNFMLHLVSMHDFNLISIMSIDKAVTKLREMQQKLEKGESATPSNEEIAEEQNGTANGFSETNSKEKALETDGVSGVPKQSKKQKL
# These are yes or no findings as the source states them, for the method shown. In cells and extracts the contact can be indirect. Some entries that bind do so weakly or less than the wild type.
# How the values were obtained:
# [1] = target: DNA methyltransferase 3B (mouse (endogenous in mouse blastocysts and PGK12.1 ES cells)) (UniProt O88509); assay: co-IP
# [2] = target: DNA methyltransferase 3B (mouse (endogenous in mouse blastocysts and PGK12.1 ES cells)) (UniProt O88509); assay: proximity ligation
binding [1],binding [2],Substance
binds,binds,EED (from UniProt Q921E6 1-441)
binds,binds,EZH2 (from UniProt Q61188 1-746) (enzyme)
binds,binds,SUZ12 (from UniProt Q80U70 1-741)
